In PMC10943805:
No constants are given. Whether binding was seen depends on the method and setting. In cells and extracts the contact can be indirect. Binding calls can cover weak binding; strength is not graded here.

The chains behind the UniProt entries cited, without tags or fusion partners. Where a name states a change or a piece, a line headed by the entry shows the natural chain unless it says otherwise.
UniProt Q2EJA0: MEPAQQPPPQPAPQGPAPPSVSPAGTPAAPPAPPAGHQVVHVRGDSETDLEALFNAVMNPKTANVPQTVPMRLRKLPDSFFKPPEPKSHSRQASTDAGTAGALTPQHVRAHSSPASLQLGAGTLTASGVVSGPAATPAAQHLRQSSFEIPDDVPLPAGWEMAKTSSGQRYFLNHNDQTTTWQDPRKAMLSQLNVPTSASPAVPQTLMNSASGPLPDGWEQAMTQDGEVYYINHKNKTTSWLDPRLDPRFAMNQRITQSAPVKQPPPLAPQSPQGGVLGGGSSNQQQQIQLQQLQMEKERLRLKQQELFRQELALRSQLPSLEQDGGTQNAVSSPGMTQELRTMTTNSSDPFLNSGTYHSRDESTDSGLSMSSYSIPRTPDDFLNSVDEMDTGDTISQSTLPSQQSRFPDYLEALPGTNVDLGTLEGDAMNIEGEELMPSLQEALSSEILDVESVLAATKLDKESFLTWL
UniProt D3ZYL0: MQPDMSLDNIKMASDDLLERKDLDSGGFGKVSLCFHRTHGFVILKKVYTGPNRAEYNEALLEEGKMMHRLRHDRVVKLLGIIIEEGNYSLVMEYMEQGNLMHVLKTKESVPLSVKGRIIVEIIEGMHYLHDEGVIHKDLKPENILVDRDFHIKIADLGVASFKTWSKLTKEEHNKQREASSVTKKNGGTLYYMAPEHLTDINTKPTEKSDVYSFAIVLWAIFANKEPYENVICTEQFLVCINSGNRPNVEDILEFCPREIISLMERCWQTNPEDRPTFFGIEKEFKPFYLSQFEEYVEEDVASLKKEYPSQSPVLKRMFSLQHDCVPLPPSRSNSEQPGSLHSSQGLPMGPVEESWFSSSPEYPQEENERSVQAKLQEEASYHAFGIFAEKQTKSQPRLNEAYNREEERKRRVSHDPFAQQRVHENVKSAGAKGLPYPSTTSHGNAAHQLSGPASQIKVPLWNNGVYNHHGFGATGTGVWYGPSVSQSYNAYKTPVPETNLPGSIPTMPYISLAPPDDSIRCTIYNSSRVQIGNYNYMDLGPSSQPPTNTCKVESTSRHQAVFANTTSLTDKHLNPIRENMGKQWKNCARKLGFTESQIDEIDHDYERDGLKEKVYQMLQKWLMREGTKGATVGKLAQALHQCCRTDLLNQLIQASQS

Molecular target: Yes-associated protein (YAP) (rat (endogenous in primary rat chondrocytes)) (UniProt Q2EJA0)
Experiment: co-IP; lysate of primary rat chondrocytes (control or treated with IL-1β for 24 h; in Fig. 7I also after LIPUS) in IP lysis buffer with protease inhibitors; pre-cleared with Protein A+G magnetic beads; anti-YAP antibody overnight at 4 °C; western blot of the precipitate

- binding: binds
Substance: RIPK1 (from UniProt D3ZYL0)
